Results on six molecules are retold here after article PMC12881369.

By UniProt entry, the sequences of proteins in these tests, tags left out. Residues count along the entry.
UniProt Q2UVX4, residues 23-1661: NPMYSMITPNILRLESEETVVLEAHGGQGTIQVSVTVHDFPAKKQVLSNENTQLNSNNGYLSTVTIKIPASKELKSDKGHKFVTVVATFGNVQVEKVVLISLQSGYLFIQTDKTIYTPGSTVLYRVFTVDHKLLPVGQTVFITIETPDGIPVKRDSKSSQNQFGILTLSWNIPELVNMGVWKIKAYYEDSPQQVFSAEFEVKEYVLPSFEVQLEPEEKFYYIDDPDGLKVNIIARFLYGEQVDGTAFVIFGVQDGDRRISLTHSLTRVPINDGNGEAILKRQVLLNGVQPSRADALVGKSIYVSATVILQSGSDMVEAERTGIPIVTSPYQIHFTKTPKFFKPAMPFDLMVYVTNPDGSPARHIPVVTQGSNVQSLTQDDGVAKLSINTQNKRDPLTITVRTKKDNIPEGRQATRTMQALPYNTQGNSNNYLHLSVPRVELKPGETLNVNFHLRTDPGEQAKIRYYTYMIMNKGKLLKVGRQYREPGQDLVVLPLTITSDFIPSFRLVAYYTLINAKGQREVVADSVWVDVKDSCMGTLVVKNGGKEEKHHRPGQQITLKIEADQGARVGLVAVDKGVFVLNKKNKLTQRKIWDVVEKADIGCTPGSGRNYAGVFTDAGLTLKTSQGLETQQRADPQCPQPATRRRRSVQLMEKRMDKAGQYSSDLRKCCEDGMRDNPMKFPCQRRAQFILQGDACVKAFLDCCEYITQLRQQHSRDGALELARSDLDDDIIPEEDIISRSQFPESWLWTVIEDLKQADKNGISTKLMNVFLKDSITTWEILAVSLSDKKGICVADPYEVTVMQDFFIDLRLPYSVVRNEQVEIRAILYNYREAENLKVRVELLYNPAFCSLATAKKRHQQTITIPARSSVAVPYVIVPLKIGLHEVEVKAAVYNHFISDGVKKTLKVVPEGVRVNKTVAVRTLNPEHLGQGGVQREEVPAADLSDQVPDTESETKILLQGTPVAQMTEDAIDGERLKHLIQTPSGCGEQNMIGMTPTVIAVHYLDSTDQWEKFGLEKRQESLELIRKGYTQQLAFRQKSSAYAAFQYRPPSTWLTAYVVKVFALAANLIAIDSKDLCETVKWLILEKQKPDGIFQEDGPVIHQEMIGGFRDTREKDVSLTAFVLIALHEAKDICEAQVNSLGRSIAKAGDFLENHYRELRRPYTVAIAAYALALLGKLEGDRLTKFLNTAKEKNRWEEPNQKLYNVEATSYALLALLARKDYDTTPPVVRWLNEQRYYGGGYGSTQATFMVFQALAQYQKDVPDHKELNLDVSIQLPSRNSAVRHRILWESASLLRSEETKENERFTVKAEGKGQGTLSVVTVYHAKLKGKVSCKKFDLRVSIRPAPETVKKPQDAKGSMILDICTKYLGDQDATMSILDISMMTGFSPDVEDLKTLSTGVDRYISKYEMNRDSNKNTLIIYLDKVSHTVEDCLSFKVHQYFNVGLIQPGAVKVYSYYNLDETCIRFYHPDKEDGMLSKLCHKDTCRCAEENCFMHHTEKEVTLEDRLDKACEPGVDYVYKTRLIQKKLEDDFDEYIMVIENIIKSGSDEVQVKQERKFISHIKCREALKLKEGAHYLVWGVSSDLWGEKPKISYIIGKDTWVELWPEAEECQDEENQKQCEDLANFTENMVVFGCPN
UniProt Q58D62, residues 19-387: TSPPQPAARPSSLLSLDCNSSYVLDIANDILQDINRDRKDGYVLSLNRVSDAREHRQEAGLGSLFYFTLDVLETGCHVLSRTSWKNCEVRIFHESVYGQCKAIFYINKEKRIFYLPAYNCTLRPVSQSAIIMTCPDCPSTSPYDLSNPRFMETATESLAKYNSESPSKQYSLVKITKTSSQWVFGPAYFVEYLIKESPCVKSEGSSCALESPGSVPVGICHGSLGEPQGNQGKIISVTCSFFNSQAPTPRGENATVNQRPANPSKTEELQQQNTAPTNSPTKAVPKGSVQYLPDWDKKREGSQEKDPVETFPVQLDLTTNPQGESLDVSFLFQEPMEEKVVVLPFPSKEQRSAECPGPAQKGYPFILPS

No constants are given. Whether binding was seen depends on the method and setting. In cells and extracts the contact can be indirect. These calls come from enrichment with a bait or labelling near it, and not all partners need be listed. Where a sequence is shown, tags or fusion partners need not be part of it.

The assay deals with T1, FLAG-tagged Scube2 (signal sequence, cubulin (CUB) domain, epidermal growth factor (EGF)-like protein 2) (human) (UniProt Q9NQ36).
T1 sequence: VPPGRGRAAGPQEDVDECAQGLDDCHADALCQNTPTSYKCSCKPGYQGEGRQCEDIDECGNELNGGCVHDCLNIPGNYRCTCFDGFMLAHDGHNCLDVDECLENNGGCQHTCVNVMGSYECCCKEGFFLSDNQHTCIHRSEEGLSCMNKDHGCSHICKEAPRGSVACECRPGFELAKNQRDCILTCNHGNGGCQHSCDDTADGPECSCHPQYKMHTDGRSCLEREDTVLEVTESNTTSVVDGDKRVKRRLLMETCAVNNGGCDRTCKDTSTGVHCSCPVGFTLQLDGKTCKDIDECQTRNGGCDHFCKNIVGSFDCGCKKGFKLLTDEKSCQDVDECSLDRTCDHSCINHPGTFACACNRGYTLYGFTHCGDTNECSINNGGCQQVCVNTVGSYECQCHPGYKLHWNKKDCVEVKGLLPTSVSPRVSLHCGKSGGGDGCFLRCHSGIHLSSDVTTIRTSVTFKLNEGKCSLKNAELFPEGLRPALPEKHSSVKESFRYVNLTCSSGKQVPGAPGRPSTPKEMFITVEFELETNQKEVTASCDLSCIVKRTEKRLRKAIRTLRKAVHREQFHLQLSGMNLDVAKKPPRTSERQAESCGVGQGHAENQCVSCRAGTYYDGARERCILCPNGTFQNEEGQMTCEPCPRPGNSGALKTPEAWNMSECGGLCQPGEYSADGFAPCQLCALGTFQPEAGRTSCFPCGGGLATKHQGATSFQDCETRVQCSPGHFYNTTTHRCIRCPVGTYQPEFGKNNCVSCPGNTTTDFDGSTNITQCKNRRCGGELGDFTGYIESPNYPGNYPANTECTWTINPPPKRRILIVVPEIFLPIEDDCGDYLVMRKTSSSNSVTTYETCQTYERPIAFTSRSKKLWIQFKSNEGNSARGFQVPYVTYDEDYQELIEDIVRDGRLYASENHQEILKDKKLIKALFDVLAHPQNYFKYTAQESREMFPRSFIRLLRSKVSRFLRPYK
Nature of the assay: affinity purification with mass spectrometry; FLAG-tagged Scube2 expressed in serum-containing medium, bound to anti-FLAG M2-agarose beads overnight at 4 °C, washed with TBS, eluted with 0.1 M glycine HCl pH 3.5; search against human UniProt plus 199 fetal bovine serum sequences.

On to “complement C3 (from UniProt Q2UVX4 23-1661)”, for which the binding result was “binds”.

On to fetuin-B (from UniProt Q58D62 19-387), for which the binding entry is “binds”.

For plasminogen (bovine), the binding result is on record as “binds”.

B1: α2-antiplasmin (protein, UniProt P28800 41-492)
chain: AQQKLPPLSLLKLDNQEPGGQIAPKKAPEDCKLSPTPEQTRRLARAMMTFTTDLFSLVAQSSTRPNLILSPLSVALALSHLALGAQNQTLQRLKEVLHADSGPCLPHLLSRLCQDLGPGAFRLAARMYLQKGFPIKEDFLEQSEQLFGAKPMSLTGMKGEDLANINRWVKEATEGKIEDFLSDLPDDTVLLLLNAIHFQGFWRSKFDPNLTQRGAFHLDEQFTVPVDMMQALTYPLHWFLLEQPEIQVAHFPFKNNMSFVVLMPTRFEWNASQVLANLTWDILHQPSLSERPTKVQLPKLHLKYQLDLVATLSQLGLQELFQAPDLRGISDERLVVSSVQHQSALELSEAGVQAAAATSTAMSRMSLSSFIVNRPFLFFILEDSTSLPLFVGSVRNPNPGAQPERKEQQDSPDGKDSFQDHKGLPRGDKPFDPDLKLGPPSEEDYAQPSSPK
For B1, the binding result is on record as “binds”.

B2: α2-macroglobulin (protein, UniProt Q7SIH1 24-1510)
chain: SVSGKPQYMVLVPSLLHTETPEKGCLLLSHLNETVTVSASLESVRENRSLFTDVVAEKDLFHCVSFTLPRSPTSQEVMFLTIQVKGPTQEFKKRTTVLVKNEESLVFVQTDKPIYKPEQTVKFRIVLLDESFHPLNELVPLVYVEDPKGNRIAQWQNLEVENGLQQLTFPLSSEPFQGSYKVVVQKGSGGTAEHPFTVEEFVLPKFEVQVRMPKIITILEEEVQVSVCGLYTYGKPVPGRVTMNMCRKYRNPSNCYGEESNAVCEKFSGELNNEGCFSQQVNTKIFQLKRQEFEMKIEVEAKIQEEGTEVELTGKGATEITTTITKLSFVTVDSNLRRGIPFTGKVLLVDGKGVPMPNKVIFITANEANHNSNTTTDEHGLAQFSITTTKIKGTSLSIRVKYKDHSPCYGYQWLSEEHQDAYHSANLVFSRSNSFVYLEPLPRELPCGKTQTVQAHYVLKGQVLKDLKELVFYYLIMAKGGIVRSGTHTLPVEQGDMQGHFSMSVPVESDIAPVARLLIYAILPDGEVVGDSARYEIEHCLANKVGLNFSPGQSFPASQAHLRVTASPQSLCALRAVDQSVLLMRPEAELSAATVYNLLPVKDLSSFPSSVNQQEEDNEDCISHDNVYINGIMYFPVSNTNEKDMYSFLQDMGLKAFTNSKIHKPKICPQPEEHRIQHHTLLASPVRAEMGRNRDFVHFDDTSEPPTETVRKYFPETWIWDLVVVSSSGVHEVEVTVPDTITEWKAGALCLSRDTGLGLSPTASLRVFQPFFVELTMPYSVIRGEAFTLKATVLNYLPKCIRVSVQLEASPAFLAVPEKEQETYCICGNGRQTVSWAVTPKSLGNVNFTVSAEAVESQELCGSEVPVVPEHGRKDTIIKPLLVEPEGLEKEVIFNSLLCPSVDFVFLGAEDGGQVLRHFPPAAATDTAADAHDPARPGAKVSESLSLKLPPNVVEESARASFSVLGDILGSAMRNTQNLLQMPYGCGEQNMARFAPNIYVLDYLNETQQLTAELKSKAILYLNTGYQRQLLYKHFDGSYSTFGEHRGNSEGNTWLTAFVLKSFAQARGYIFIDEAHITEALTWLAQKQKSNGCFRSTGTLLNNAIKGGVDDEVTLSAYITIALLEMPLPVTHPVVRNALFCLDSAWKSAKEGSQGSHVYTKALLAYAFALAGNQERRTEVLTSLYEEAVKEDNTIHWTRPQKPRLLTEDIYQPRAPSAEVEMTAYVILAHVTAQPAPNPEDLKRATSIVKWISKQQNCQGGFSSTQDTVVALHALSRYGAATFTSARKAAQVTIQSSGTFSTKFQVENSNRLLLQQVSLPEVPGEYSMSVTGEGCVYLQTSLKYNILPKKDEFPFALEVQTLPQTCDGPKAHTSFQISLSVSYIGSRPASNMAIVDVKMVSGFIPLKPTVKMLERSNVSRTEVSNNHVLIYLDKVTNETLTLTFTVLQDIPVRDLKPAIVKVYDYYETDEFAVAEYSAPCSKDIGNA
B2: the binding result is recorded as “binds”.

B3: α1-antiproteinase (protein, UniProt P34955 25-416)
chain: GVLQGHAVQETDDTSHQEAACHKIAPNLANFAFSIYHHLAHQSNTSNIFFSPVSIASAFAMLSLGAKGNTHTEILKGLGFNLTELAEAEIHKGFQHLLHTLNQPNHQLQLTTGNGLFINESAKLVDTFLEDVKNLYHSEAFSINFRDAEEAKKKINDYVEKGSHGKIVELVKVLDPNTVFALVNYISFKGKWEKPFEMKHTTERDFHVDEQTTVKVPMMNRLGMFDLHYCDKLASWVLLLDYVGNVTACFILPDLGKLQQLEDKLNNELLAKFLEKKYASSANLHLPKLSISETYDLKSVLGDVGITEVFSDRADLSGITKEQPLKVSKALHKAALTIDEKGTEAVGSTFLEAIPMSLPPDVEFNRPFLCILYDRNTKSPLFVGKVVNPTQA
As for B3, the binding entry is listed as “binds”.
